Values quoted from earlier work, collected in patent publication US20260048058A1, “VALACYCLOVIR AND CELECOXIB FOR THE TREATMENT OF ALZHEIMER'S DISEASE AND COVID-19” (Dogwood Thepapeutics, Inc., priority 2022, published 2026).
At least one compound was matched to its structure with a doubt left.

System: herpes viral reactivation
Details: nervous system of mice; Gebhardt et al. 2005

**Q.** For `Cc1ccc(-c2cc(C(F)(F)F)nn2-c2ccc(S(N)(=O)=O)cc2)cc1` [celecoxib], which “suppression of hyperthermic stress-induced herpes viral reactivation” value is on record?
**A.** The value was “can suppress”.
